# Source: the supplement of paper PMC10663445
# Counter-ions that a name gives are not always drawn. Some of the results follow. Many values rest on one well or one pass, so single values are uncertain.
# Test system: hsa-miR-132-3p
# Assay: miR-132-3p level in NGN2-iNs after compound treatment (TMM-normalised, ComBat batch-corrected) (batch-corrected normalised expression (arbitrary units)); higher = higher miR-132-3p expression
# Conditions: 10 µM; 24 h; human iPSC-derived NGN2 neurons (BR43)
row,SMILES,miR-132-3p level in NGN2-iNs
1,COc1c(O)cc2c(c1O)[C@@H]1O[C@H](CO)[C@@H](O)[C@H](O)[C@H]1OC2=O [Bergenin],-0.425
2,CC(C)[C@H]1CC[C@H](C(=O)N[C@H](Cc2ccccc2)C(=O)O)CC1 [Nateglinide],-0.266
3,Nc1cccc(-c2cc3c(Oc4cccc(O)c4)ncnc3[nH]2)c1,0.863
4,COc1ccc(-n2nc(C(N)=O)c3c2C(=O)N(c2ccc(N4CCCCC4=O)cc2)CC3)cc1 [Apixaban],2.78
5,COc1ccc(C(C)=O)c(O)c1 [Paeonol],0.966
6,C[C@@H](O)[C@H]1C(=O)N2C(C(=O)OCOC(=O)C(C)(C)C)=C(SC3CN(C4=NCCS4)C3)[C@H](C)[C@H]12 [Tebipenem Pivoxil],0.85
7,CCCCOc1ccc(OCCCN2CCOCC2)cc1 [Pramoxine HCl],-0.136
8,CC1CCc2cc(F)cc3c(=O)c(C(=O)O)cn1c23 (configuration not stated) [Flumequine],0.558
9,CC(C)C[C@H](NC(=O)CNC(=O)c1cc(Cl)ccc1Cl)B1OC(=O)CC(CC(=O)O)(C(=O)O)O1 (some centres not stated) [Ixazomib Citrate (MLN9708)],2
10,CCOC(=O)C1=C(C)NC(C)=C(C(=O)OC)C1c1cccc([N+](=O)[O-])c1 (configuration not stated) [Nitrendipine],-0.446
11,O=C1c2ccccc2-c2n[nH]c3cccc1c23,0.378
12,CNC(=O)c1ccc(N2C(=S)N(c3cnc(C#N)c(C(F)(F)F)c3)C(=O)C23CCC3)cc1F,-0.937
13,CC(CN1c2ccccc2Sc2ccccc21)N(C)C (configuration not stated) [Promethazine HCl],-0.155
14,CNC(=O)c1ccccc1Sc1ccc2c(/C=C/c3ccccn3)n[nH]c2c1 [Axitinib],-2.85
15,CCOc1cc(N2CCC(O)CC2)ccc1Nc1ncc2c(n1)N(C)c1ccccc1C(=O)N2C,0.128
16,S=C=Nc1cccc(NC(=S)NCCCCNC(=S)Nc2cccc(N=C=S)c2)c1,-0.551
17,"CC[C@H](Nc1ncnc2[nH]cnc12)c1nc2cccc(F)c2c(=O)n1-c1ccccc1 [Idelalisib (CAL-101, GS-1101)]",0.184
18,O=C(NC1CCNCC1)c1n[nH]cc1NC(=O)c1c(Cl)cccc1Cl,0.269
19,CC(C)c1noc(N2CCC(COc3ccc(-c4ccc(S(C)(=O)=O)cc4)nc3)CC2)n1,-1.35
20,CCCC(CCC)C(=O)O [Divalproex Sodium],-0.38
21,CCCC(CCC)C(=O)O [Valproic acid sodium salt (Sodium valproate)],-0.0281
22,COc1ccccc1N1CCN(CCN2C(=O)CC3(CCCC3)CC2=O)CC1 [BMY 7378 Dihydrochloride],1.24
23,OCC(O)CN1CCN(c2ccccc2)CC1 (configuration not stated) [Dropropizine],-0.495
24,O[C@@H](COc1cccc2ncccc12)CN1CCN(C2c3ccccc3[C@@H]3[C@H](c4ccccc42)C3(F)F)CC1 (some centres not stated),0.152

# Random excerpt: 2 records from the list.
row,SMILES,miR-132-3p level in NGN2-iNs
19,CC(C)c1noc(N2CCC(COc3ccc(-c4ccc(S(C)(=O)=O)cc4)nc3)CC2)n1,-1.35
23,OCC(O)CN1CCN(c2ccccc2)CC1 (configuration not stated) [Dropropizine],-0.495

# (continued)

row,SMILES,miR-132-3p level in NGN2-iNs
1,COC1=CC(=O)C[C@@H](C)[C@]12Oc1c(Cl)c(OC)cc(OC)c1C2=O [Griseofulvin],-0.987
2,Cc1ccc(-n2[nH]c(C)c(N=Nc3cccc(-c4cccc(C(=O)O)c4)c3O)c2=O)cc1C [Eltrombopag Olamine],-0.0463
3,NC1=N[C@@]2(c3cc(NC(=O)c4ccc(F)cn4)ccc3F)COC[C@H]2CS1,-0.94
4,COc1ccc(COc2cc3oc(=O)c4cc(C(C)O)ccc4c3cc2OC)cc1 (configuration not stated) [Palomid 529 (P529)],-0.297
5,COc1ccc2cc1Oc1ccc(cc1)C[C@H]1c3c(cc4c(c3Oc3cc5c(cc3OC)CCN(C)[C@@H]5C2)OCO4)CCN1C [Cepharanthine],-0.691
6,"CO[C@H]1C[C@@H]2CC[C@@H](C)[C@@](O)(O2)C(=O)C(=O)N2CCCC[C@H]2C(=O)O[C@H]([C@H](C)C[C@@H]2CC[C@@H](OP(C)(C)=O)[C@H](OC)C2)CC(=O)[C@H](C)/C=C(\C)[C@@H](O)[C@@H](OC)C(=O)[C@H](C)C[C@H](C)/C=C/C=C/C=C/1C [Ridaforolimus (Deforolimus, MK-8669)]",0.258
7,CC[C@@H]1C(=O)N(C)c2cnc(Nc3ccc(C(=O)NC4CCN(C)CC4)cc3OC)nc2N1C1CCCC1,0.0111
8,Cc1c(OCC(F)(F)F)ccnc1C[S+]([O-])c1nc2ccccc2[nH]1 (configuration not stated) [Lansoprazole],-0.35
9,Brc1c(NC2=NCCN2)ccc2nccnc12 [Brimonidine Tartrate],-0.666
10,N=C(N)N/N=C/c1c(Cl)cccc1Cl [Guanabenz Acetate],-0.349
11,CN(CCOc1ccc(CC2SC(=O)NC2=O)cc1)c1ccccn1 (configuration not stated) [Rosiglitazone],-1.71
12,CC(N)C12CC3CC(CC(C3)C1)C2 (configuration not stated) [Rimantadine],-1.4
13,COc1ccc(C[C@@H]2c3cc(OC)c(OC)cc3CC[N@+]2(C)CCC(=O)OCCCCCOC(=O)CC[N@@+]2(C)CCc3cc(OC)c(OC)cc3[C@H]2Cc2ccc(OC)c(OC)c2)cc1OC [Cisatracurium Besylate],0.502
14,CCOC(=O)c1c(C)n(C)c2ccc(O)cc12 [Mecarbinate],-1.11
15,O=C(O)CC1CC(c2ccccc2)=NO1 (configuration not stated),-0.76
16,Cn1c([N+](=O)[O-])cnc1COC(N)=O [Ronidazole],0.493
17,O=C1C(Cc2ccc(O)cc2)N2C(=O)CCN(C(=O)NCc3ccccc3)C2CN1Cc1cccc2ccccc12 (configuration not stated) [Foscenvivint (ICG-001)],0.347
18,CCN(c1cc(-c2ccc(CN3CCOCC3)cc2)cc(C(=O)NCc2c(C)cc(C)[nH]c2=O)c1C)C1CCOCC1 [Tazemetostat (EPZ-6438)],-0.847
19,Cc1cc(Nc2nc(N[C@@H](C)c3ncc(F)cn3)ncc2Cl)[nH]n1,-0.37
20,COC[C@H](NC(=O)c1cnc(C)s1)C(=O)N[C@@H](COC)C(=O)N[C@@H](Cc1ccccc1)C(=O)[C@@]1(C)CO1 [Oprozomib (ONX 0912)],0.115
21,CNC(=O)[C@H](Cc1ccccc1)NC(=O)[C@H](CC(C)C)[C@H](CSc1cccs1)C(=O)NO [Batimastat (BB-94)],0.838
22,CCOC(=O)[C@H](CCc1ccccc1)N[C@@H](C)C(=O)N1CCC[C@H]1C(=O)O [Enalapril Maleate],0.985
23,C=CC(=O)Nc1ccc2ncnc(Nc3ccc(OCc4cccc(F)c4)c(Cl)c3)c2c1 [Allitinib tosylate],-0.548
